Measurements reported in article PMC6137200.
No constants are given. Whether binding was seen depends on the method and setting. Binding seen in cells or lysates may run through a third protein. These calls come from enrichment with a bait or labelling near it, and not all partners need be listed. No binding means not detected with the bait.

By UniProt entry, the sequences of proteins in these tests, tags left out.
UniProt Q13596: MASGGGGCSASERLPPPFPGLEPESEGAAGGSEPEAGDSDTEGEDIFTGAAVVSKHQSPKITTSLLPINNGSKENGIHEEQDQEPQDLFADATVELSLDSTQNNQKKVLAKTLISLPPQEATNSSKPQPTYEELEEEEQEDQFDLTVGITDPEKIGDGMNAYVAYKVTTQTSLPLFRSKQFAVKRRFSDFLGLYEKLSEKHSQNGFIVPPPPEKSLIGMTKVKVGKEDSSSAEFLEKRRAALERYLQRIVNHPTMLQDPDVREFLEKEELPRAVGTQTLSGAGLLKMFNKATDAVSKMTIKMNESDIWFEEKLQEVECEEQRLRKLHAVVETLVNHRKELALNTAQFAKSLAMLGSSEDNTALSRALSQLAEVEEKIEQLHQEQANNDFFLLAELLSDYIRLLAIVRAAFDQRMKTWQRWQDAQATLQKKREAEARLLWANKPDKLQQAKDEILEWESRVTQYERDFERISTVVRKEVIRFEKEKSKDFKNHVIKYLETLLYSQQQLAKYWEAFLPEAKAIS
UniProt Q7Z3U7: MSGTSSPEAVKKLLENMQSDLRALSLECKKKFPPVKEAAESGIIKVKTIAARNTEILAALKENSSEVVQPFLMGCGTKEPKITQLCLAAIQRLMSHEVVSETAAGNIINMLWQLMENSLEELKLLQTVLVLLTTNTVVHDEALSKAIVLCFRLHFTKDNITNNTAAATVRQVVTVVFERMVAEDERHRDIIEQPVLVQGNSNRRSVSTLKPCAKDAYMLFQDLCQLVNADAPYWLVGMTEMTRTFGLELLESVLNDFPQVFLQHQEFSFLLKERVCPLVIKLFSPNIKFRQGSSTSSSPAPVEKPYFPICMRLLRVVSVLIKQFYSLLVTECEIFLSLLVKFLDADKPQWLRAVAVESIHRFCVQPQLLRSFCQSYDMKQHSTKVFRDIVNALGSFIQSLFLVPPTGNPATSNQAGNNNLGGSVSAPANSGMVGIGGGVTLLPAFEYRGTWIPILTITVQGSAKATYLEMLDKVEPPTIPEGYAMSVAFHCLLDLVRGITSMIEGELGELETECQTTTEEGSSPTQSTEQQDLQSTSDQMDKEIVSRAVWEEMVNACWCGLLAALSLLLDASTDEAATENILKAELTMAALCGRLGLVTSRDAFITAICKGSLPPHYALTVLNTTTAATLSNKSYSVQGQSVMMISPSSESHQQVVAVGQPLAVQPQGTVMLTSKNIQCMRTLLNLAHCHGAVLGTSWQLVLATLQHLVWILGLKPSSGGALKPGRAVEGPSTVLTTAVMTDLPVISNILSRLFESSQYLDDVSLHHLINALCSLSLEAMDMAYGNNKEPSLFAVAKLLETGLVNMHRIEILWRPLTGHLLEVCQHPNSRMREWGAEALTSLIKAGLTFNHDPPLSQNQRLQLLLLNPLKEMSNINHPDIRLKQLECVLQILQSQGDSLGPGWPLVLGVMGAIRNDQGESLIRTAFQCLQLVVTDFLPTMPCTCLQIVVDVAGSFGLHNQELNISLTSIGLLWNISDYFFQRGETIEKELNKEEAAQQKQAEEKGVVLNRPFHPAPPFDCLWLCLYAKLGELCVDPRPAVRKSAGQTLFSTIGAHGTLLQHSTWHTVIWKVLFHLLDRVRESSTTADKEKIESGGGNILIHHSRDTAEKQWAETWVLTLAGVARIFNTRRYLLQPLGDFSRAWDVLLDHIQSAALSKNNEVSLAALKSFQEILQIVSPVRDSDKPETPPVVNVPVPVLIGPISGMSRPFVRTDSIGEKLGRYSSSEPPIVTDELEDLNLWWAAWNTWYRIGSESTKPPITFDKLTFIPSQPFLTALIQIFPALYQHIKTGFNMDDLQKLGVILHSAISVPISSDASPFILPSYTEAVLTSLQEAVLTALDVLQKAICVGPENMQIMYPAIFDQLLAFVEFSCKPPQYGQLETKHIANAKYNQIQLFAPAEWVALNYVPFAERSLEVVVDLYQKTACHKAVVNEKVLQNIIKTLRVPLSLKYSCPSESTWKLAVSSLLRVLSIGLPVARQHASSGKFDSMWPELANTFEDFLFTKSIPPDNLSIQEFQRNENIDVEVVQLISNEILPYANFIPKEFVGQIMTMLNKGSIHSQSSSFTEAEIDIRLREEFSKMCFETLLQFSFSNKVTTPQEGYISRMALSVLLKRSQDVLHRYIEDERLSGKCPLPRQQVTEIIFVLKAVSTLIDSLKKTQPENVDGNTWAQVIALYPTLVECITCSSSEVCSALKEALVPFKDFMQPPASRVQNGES
UniProt O00560: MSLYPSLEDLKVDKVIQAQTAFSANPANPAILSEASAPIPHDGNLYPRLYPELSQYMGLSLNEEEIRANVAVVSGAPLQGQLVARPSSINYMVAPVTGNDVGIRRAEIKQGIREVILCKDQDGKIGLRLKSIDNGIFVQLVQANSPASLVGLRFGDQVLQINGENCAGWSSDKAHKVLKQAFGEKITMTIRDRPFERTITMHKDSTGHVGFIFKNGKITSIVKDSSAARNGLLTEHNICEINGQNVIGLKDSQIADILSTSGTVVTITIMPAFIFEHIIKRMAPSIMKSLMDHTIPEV

B1: FIG4 (endogenous, RPE-1) (protein, UniProt Q92562 1-907)
chain: MPTAAAPIISSVQKLVLYETRARYFLVGSNNAETKYRVLKIDRTEPKDLVIIDDRHVYTQQEVRELLGRLDLGNRTKMGQKGSSGLFRAVSAFGVVGFVRFLEGYYIVLITKRRKMADIGGHAIYKVEDTNMIYIPNDSVRVTHPDEARYLRIFQNVDLSSNFYFSYSYDLSHSLQYNLTVLRMPLEMLKSEMTQNRQESFDIFEDEGLITQGGSGVFGICSEPYMKYVWNGELLDIIKSTVHRDWLLYIIHGFCGQSKLLIYGRPVYVTLIARRSSKFAGTRFLKRGANCEGDVANEVETEQILCDASVMSFTAGSYSSYVQVRGSVPLYWSQDISTMMPKPPITLDQADPFAHVAALHFDQMFQRFGSPIIILNLVKEREKRKHERILSEELVAAVTYLNQFLPPEHTIVYIPWDMAKYTKSKLCNVLDRLNVIAESVVKKTGFFVNRPDSYCSILRPDEKWNELGGCVIPTGRLQTGILRTNCVDCLDRTNTAQFMVGKCALAYQLYSLGLIDKPNLQFDTDAVRLFEELYEDHGDTLSLQYGGSQLVHRVKTYRKIAPWTQHSKDIMQTLSRYYSNAFSDADRQDSINLFLGVFHPTEGKPHLWELPTDFYLHHKNTMRLLPTRRSYTYWWTPEVIKHLPLPYDEVICAVNLKKLIVKKFHKYEEEIDIHNEFFRPYELSSFDDTFCLAMTSSARDFMPKTVGIDPSPFTVRKPDETGKSVLGNKSNREEAVLQRKTAASAPPPPSEEAVSSSSEDDSGTDREEEGSVSQRSTPVKMTDAGDSAKVTENVVQPMKELYGINLSDGLSEEDFSIYSRFVQLGQSQHKQDKNSQQPCSRCSDGVIKLTPISAFSQDNIYEVQPPRVDRKSTEIFQAHIQASQGIMQPLGKEDSSMYREYIRNRYL
B2: syndecan-1 (endogenous, RPE-1) (protein, UniProt P18827 23-310)
chain: QIVATNLPPEDQDGSGDDSDNFSGSGAGALQDITLSQQTPSTWKDTQLLTAIPTSPEPTGLEATAASTSTLPAGEGPKEGEAVVLPEVEPGLTAREQEATPRPRETTQLPTTHLASTTTATTAQEPATSHPHRDMQPGHHETSTPAGPSQADLHTPHTEDGGPSATERAAEDGASSQLPAAEGSGEQDFTFETSGENTAVVAVEPDRRNQSPVDQGATGASQGLLDRKEVLGGVIAGGLVGLIFAVCLVGFMLYRMKKKDEGSYSLEEPKQANGGAYQKPTKQEEFYA
B3: SNX32 (endogenous, RPE-1) (protein, UniProt Q86XE0 1-403)
chain: METYAEVGKEGKPSCASVDLQGDSSLQVEISDAVSERDKVKFTVQTKSCLPHFAQTEFSVVRQHEEFIWLHDAYVENEEYAGLIIPPAPPRPDFEASREKLQKLGEGDSSVTREEFAKMKQELEAEYLAIFKKTVAMHEVFLQRLAAHPTLRRDHNFFVFLEYGQDLSVRGKNRKELLGGFLRNIVKSADEALITGMSGLKEVDDFFEHERTFLLEYHTRIRDACLRADRVMRAHKCLADDYIPISAALSSLGTQEVNQLRTSFLKLAELFERLRKLEGRVASDEDLKLSDMLRYYMRDSQAAKDLLYRRLRALADYENANKALDKARTRNREVRPAESHQQLCCQRFERLSDSAKQELMDFKSRRVSSFRKNLIELAELELKHAKASTLILRNTLVALKGEP

biological target: GFP-SNX3 (RPE-1, lentivirally transduced) (human) (UniProt O60493); experiment: affinity purification with mass spectrometry; SILAC: RPE1 cells lentivirally transduced with GFP (R0K0) or GFP-SNX3 (R6K4); GFP-trap beads 60 min; LC-MS/MS on Orbitrap Velos; filter > 3-fold enrichment over GFP and two or more peptides

Row | Molecule | binding
1 | B1 | binds
2 | B2 | binds
3 | B3 | no binding

biological target: GFP-SNX3 (RPE-1, lentivirally transduced) (human) (UniProt O60493); experiment: as above; remark: another data set of the same source

Row | Molecule | binding
4 | SNX1 (endogenous, RPE-1) (from UniProt Q13596 1-522) | no binding
5 | MON2 (endogenous, RPE-1) (from UniProt Q7Z3U7 1-1717) | binds
6 | VPS26A (endogenous, RPE-1) (from UniProt O75436 1-327) | binds
7 | syntenin (endogenous, RPE-1) (from UniProt O00560 1-298) | binds
